The source of these data is article PMC6582607.

Sequences of proteins named here, by UniProt entry; tags and fusion partners are left off. Residues count along the entry.
UniProt P80188, 21-198: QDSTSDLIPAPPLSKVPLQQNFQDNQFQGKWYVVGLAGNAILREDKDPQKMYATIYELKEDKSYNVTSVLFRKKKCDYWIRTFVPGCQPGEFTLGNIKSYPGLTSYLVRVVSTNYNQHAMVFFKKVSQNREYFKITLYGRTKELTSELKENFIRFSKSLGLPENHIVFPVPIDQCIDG

This data set has as its target NGAL (neutrophil gelatinase-associated lipocalin) (UniProt P80188). Description: magnetic bead pull-down, qPCR. The following applies: 200 nM aptamer; room temperature, 1 h, NGAL-coated magnetic beads (about 0.20 ug NGAL per uL beads); single-stranded DNA. A general note: Quantitative PCR measures a nucleic acid by following its amplification.

A weaker result is weaker than the reference pair of the same experiment.

With “AGCAGCACAGAGGTCAGATGCAACGGGTATAACCAGATGATTTGGCGCCACGTAACCTATGCGTGCTACCGTGAA [NA21]”, the binding result is recorded as “binds more weakly”.
Turning to “AGCAGCACAGAGGTCAGATGTGCTGGAATCAACACGATCGCATCCCGGATGGGCTCCTATGCGTGCTACCGTGAA [NA10]”, the binding result is reported as “binds more weakly”.
